# The structures given here were assigned with low confidence; some may be wrong.
# The chains behind the UniProt entries cited, without tags or fusion partners. Residues count along the entry.
# UniProt P10721, 26-976 limits assumed: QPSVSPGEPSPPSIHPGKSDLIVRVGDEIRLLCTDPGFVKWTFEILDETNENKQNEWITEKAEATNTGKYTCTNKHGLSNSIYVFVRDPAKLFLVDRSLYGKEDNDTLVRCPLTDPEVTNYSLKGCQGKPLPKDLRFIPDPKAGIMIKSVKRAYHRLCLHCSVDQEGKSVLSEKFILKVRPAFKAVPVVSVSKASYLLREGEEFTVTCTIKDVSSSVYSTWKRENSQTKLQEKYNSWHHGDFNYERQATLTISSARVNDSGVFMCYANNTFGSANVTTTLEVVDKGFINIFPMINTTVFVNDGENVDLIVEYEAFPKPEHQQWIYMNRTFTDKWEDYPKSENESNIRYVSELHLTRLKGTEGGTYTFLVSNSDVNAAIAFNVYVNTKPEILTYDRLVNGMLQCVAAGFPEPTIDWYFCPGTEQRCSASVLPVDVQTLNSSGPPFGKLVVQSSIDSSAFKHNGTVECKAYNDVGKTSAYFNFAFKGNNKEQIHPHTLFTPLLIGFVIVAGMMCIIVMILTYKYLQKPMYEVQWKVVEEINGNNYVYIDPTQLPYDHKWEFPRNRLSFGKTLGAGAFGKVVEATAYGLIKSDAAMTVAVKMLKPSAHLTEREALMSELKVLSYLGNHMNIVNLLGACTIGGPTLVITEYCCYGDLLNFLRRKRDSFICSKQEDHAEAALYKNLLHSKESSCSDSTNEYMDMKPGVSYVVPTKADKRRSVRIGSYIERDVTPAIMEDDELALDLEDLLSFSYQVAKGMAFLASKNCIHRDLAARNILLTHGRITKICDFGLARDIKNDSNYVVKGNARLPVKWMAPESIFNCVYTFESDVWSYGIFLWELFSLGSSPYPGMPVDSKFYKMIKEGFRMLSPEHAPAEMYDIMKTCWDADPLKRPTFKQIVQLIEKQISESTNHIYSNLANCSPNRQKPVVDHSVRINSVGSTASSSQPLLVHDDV
# UniProt P09619, 33-1106 limits assumed: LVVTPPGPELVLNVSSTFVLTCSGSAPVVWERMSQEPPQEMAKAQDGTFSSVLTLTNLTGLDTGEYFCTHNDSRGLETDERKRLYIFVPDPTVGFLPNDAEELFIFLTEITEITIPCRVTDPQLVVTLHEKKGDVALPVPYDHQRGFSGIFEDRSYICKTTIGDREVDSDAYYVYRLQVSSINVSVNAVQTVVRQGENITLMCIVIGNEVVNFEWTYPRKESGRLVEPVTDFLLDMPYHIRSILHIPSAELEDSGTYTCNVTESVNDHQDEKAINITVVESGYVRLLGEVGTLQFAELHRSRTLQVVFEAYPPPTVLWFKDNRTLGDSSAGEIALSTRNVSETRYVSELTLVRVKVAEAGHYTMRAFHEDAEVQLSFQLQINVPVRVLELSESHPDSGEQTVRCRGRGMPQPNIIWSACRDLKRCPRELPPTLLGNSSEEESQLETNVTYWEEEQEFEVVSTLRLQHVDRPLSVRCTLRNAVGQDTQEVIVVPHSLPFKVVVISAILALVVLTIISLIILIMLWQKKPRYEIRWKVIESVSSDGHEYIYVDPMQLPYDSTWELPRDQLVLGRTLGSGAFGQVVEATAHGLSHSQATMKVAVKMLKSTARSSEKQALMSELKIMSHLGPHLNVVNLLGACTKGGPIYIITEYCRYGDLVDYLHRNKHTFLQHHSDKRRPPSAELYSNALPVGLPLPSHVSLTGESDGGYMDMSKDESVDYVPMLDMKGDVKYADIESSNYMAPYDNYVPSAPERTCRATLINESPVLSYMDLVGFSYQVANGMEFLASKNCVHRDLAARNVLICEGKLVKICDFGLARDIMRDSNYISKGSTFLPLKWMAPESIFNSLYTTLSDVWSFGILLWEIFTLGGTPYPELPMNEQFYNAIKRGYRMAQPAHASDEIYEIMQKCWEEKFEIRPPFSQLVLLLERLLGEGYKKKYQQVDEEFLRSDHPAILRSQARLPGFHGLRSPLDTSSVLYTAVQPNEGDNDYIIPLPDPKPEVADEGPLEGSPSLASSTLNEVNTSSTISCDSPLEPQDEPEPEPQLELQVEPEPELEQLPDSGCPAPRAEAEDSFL
# Columns and labels:
# [1] = target: c-Kit (Homo sapiens (Human), UniProt P10721); test: c-Kit kinase activity test (Caliper mobility shift assay); type: biochemical; conditions: read-out: c-Kit IC50
# [2] = target: PDGFRβ (Homo sapiens (Human), UniProt P09619); test: PDGFRβ kinase activity test (Caliper mobility shift assay); type: biochemical; conditions: read-out: PDGFRβ IC50
compound,measurement,setting,value
Cc1cc(-c2cc(Oc3ccc(NC(=O)N4CCC5(CCC(F)(F)CC5)C4=O)nc3)ccn2)ccn1,IC50,[1],0.0247 µM
same,IC50,[2],8.44 µM
